One molecule from publication doi:10.1101/2024.09.26.615107 can be followed below.

No constants are given. Whether binding was seen depends on the method and setting. Binding seen in cells or lysates may run through a third protein. Some binding calls cover weakened binding; strength is not graded here.

The test has as its target T1, FRMD8 (FERM domain-containing protein 8) (UniProt Q3UFK8).
T1 sequence: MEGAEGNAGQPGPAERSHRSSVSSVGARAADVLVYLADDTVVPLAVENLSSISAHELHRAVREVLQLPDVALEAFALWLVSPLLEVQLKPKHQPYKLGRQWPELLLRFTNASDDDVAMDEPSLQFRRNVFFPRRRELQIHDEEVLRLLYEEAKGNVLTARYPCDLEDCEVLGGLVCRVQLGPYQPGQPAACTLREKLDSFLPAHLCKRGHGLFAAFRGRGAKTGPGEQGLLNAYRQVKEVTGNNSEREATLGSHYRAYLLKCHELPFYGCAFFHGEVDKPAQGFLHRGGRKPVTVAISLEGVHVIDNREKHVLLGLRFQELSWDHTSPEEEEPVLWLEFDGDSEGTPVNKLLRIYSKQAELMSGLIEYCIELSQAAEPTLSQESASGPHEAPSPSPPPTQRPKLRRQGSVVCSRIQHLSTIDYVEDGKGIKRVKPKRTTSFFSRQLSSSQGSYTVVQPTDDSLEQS
As to the kind of experiment: co-IP.

B1: iRhom2 (protein, UniProt Q80WQ6 1-827)
chain: MASADKNGSNLPSVSGSRLQSRKPPNLSITIPPPESQAPGEQDSMLPERRKNPAYLKSVSLQEPRGRWQEGAEKRPGFRRQASLSQSIRKSTAQWFGVSGDWEGKRQNWHRRSLHHCSVHYGRLKASCQRELELPSQEVPSFQGTESPKPCKMPKIVDPLARGRAFRHPDEVDRPHAAHPPLTPGVLSLTSFTSVRSGYSHLPRRKRISVAHMSFQAAAALLKGRSVLDATGQRCRHVKRSFAYPSFLEEDAVDGADTFDSSFFSKEEMSSMPDDVFESPPLSASYFRGVPHSASPVSPDGVHIPLKEYSGGRALGPGTQRGKRIASKVKHFAFDRKKRHYGLGVVGNWLNRSYRRSISSTVQRQLESFDSHRPYFTYWLTFVHIIITLLVICTYGIAPVGFAQHVTTQLVLKNRGVYESVKYIQQENFWIGPSSIDLIHLGAKFSPCIRKDQQIEQLVRRERDIERTSGCCVQNDRSGCIQTLKKDCSETLATFVKWQNDTGPSDKSDLSQKQPSAVVCHQDPRTCEEPASSGAHIWPDDITKWPICTEQAQSNHTGLLHIDCKIKGRPCCIGTKGSCEITTREYCEFMHGYFHEDATLCSQVHCLDKVCGLLPFLNPEVPDQFYRIWLSLFLHAGIVHCLVSVVFQMTILRDLEKLAGWHRISIIFILSGITGNLASAIFLPYRAEVGPAGSQFGLLACLFVELFQSWQLLERPWKAFFNLSAIVLFLFICGLLPWIDNIAHIFGFLSGMLLAFAFLPYITFGTSDKYRKRALILVSLLVFAGLFASLVLWLYIYPINWPWIEYLTCFPFTSRFCEKYELDQVLH
Turning to B1, the binding entry was “binds”.
